The target of the assay is purified VDAC1 (voltage-dependent anion channel-1) (UniProt P21796 1-283, fluorescently labeled with the NanoTemper Protein labeling kit BLUE (in the MST only)). Put plainly: MST.

Amino acid sequences for entries named in this document (tags omitted).
UniProt P21796, whole entry: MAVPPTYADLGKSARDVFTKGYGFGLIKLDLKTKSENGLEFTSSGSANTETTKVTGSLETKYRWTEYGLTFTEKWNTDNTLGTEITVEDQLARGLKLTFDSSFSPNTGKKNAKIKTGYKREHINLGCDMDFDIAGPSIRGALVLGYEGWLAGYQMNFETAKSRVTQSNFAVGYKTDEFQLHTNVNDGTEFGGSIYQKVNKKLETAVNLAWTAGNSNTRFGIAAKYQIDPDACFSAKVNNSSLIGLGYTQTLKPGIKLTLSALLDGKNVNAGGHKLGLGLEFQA

This note sets out measurements from article PMC12669278 (2025).

As a reminder, the Kd is the concentration at which binding is half-saturated.

In turn, LPHAILRLDLAGRDLTDYLMKILTERQIKIWFQNRRMKWKK [actin-1E13-Antp-derived peptide] showed a Kd of 3 µM.
As for IGGSILASLSTFQQMWISKQEYDESRQIKIWFQNRRMKWKK [actin-1F6-Antp peptide], binding was put at a Kd of 7 µM.
